Results are given in words; binding and its absence hold for the method and conditions named. Some results given as binding are weak or reduced against the parent protein; the word gives no strength.
Target: P-selectin (Homo sapiens (Human)) (UniProt P16109)
Test: SPR inhibition assay on patient serum (ex vivo pharmacodynamics); blocks PSGL-1

Sequences of proteins named here, by UniProt entry; tags and fusion partners are left off. A change or cut given only in a name is not applied to a line headed by its entry.
UniProt P16109: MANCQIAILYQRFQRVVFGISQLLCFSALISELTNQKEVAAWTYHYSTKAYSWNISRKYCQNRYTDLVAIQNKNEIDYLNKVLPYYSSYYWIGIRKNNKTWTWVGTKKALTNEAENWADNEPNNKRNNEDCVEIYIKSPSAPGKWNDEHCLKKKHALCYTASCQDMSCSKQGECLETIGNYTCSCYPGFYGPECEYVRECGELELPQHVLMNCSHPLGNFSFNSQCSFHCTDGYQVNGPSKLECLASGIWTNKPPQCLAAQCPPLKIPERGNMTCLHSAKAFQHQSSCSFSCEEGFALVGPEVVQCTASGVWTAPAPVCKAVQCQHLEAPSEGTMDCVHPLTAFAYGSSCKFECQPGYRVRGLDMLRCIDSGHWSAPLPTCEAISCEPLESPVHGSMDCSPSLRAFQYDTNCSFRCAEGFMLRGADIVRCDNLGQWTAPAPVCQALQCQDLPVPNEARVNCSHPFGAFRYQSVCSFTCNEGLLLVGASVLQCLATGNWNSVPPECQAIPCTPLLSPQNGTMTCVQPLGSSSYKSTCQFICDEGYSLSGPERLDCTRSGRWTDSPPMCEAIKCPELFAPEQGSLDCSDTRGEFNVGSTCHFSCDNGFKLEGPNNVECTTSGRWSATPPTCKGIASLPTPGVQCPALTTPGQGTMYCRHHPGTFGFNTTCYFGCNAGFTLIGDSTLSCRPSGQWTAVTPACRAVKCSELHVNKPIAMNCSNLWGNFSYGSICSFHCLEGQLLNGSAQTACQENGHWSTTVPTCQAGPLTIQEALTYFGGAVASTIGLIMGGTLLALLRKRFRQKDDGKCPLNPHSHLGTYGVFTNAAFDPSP

binding: binds
B1: SelG1 (Crizanlizumab) (antibody, human IgG2, kappa, V domains shown)
VH: QVQLVQSGAEVKKPGASVKVSCKVSGYTFTSYDINWVRQAPGKGLEWMGWIYPGDGSIKYNEKFKGRVTMTVDKSTDTAYMELSSLRSEDTAVYYCARRGEYGNYEGAMDYWGQGTLVTVSS
VL: DIQMTQSPSSLSASVGDRVTITCKASQSVDYDGHSYMNWYQQKPGKAPKLLIYAASNLESGVPSRFSGSGSGTDFTLTISSLQPEDFATYYCQQSDENPLTFGGGTKVEIKR
